Assay: general procedure: Fmoc solid-phase peptide synthesis; Fmoc-PAL-PEG-PS or Fmoc-L-Arg(Pbf)-PEG-PS; HCTU/DIPEA (continuous flow) or HBTU/DIPEA (microwave)
Conditions: purification step, relative to crude material after resin cleavage

Substance: RAAPYGVRLSGREFIRAVIFTSR-NH2
- step yield: ˜50%

From patent US9359422B2 (The University of Queensland, priority 2010, dated 2016)
